Results on 4 sequences are retold here after PMC4780704, “A Parallel G Quadruplex-Binding Protein Regulates the Boundaries of DNA Elimination Events of Tetrahymena thermophila”.

The target in data set [1] is T1, His-Lia3 (Tetrahymena thermophila) (UniProt A3F815).
T1 sequence (looked up, limits assumed): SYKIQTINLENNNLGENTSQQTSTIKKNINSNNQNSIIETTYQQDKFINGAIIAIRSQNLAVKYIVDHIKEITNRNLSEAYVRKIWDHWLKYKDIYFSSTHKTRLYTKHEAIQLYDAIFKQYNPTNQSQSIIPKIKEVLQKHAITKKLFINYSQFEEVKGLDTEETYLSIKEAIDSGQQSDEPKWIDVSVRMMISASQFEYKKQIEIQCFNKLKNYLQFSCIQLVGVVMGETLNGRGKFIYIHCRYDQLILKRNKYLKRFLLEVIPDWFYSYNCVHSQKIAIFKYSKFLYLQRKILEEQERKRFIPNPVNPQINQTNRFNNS
The data set can be described thus: EMSA. As to conditions: EMSA: 10 mM Tris pH 7.5, 1 mM EDTA, 0.1 mM DTT, 5% glycerol, 0.010 mg/ml BSA, 100 mM KCl (or 100 mM LiCl to limit G4), recombinant protein, protein details: N-terminal His, label: 32P (5' PNK), unlabeled as competitor; for Kd: 100 mM LiCl, extrapolated, 4 nM probe ….

Data set [2] concerns the target T2, MBP-Lia3 (Tetrahymena thermophila) (UniProt A3F815).
T2 sequence (looked up, limits assumed): T1 sequence (looked up, limits assumed)
The data set can be described thus: EMSA. The conditions noted are these: 50-400 nM protein, LiCl; EMSA: 10 mM Tris pH 7.5, 1 mM EDTA, 0.1 mM DTT, 5% glycerol, 0.010 mg/ml BSA, 100 mM KCl (or 100 mM LiCl to limit G4), 4 nM probe, RT; recombinant protein; protein details: N-terminal MBP-TEV-His; label: 32P (5' PNK), unlabeled as competitor; single-stranded DNA.

The target of data set [3] is T1, His-Lia3 (Tetrahymena thermophila). The data set can be described thus: competition with a labelled probe. As to conditions: 5X/20X vs G4-M1 probe, LiCl, EMSA: 10 mM Tris pH 7.5, 1 mM EDTA, 0.1 mM DTT, 5% glycerol, 0.010 mg/ml BSA, 100 mM KCl (or 100 mM LiCl to limit G4), 4 nM probe, RT, recombinant protein, protein details: N-terminal His.
The mark [4] stands for this setting: label: unlabeled competitor, single-stranded DNA.

Construct, isoform or probe ends are uncertain for at least one entry. For some assays here: No signal at the amounts used counts as a negative. For some assays here: At least one verdict rests on a figure or table, not on a statement of the authors. Where a protein sequence is shown, tags need not be part of it. For some assays here: A weaker result is weaker than the reference pair of the same experiment. Where only a bound is given, the exact number is not on record here.

Take TTTATTAATCAAAAAGGGGGTAAATAATAA [ssM1]: the dissociation constant (Kd) in data set [1] (single-stranded DNA) was over 200 µM. The binding result in data set [2] is listed as “no binding”; in data set [3] (label: 32P (5' PNK), unlabeled as competitor, single-stranded DNA) it was “no binding”.
TTTATTAATCAAAAAGCGGGTAAATAATAA [M1-mut]: the binding result in data set [3] (setting [4]) is on record as “no binding”.
Still for that read-out and setting: the value for TTCAAGACAAAAAAAGGGGGATGGGTTTCC [ssM2] was “no binding”.
As for “TTTATTAATCAAAAAGGGGGTAAATAATAA (double strand) [dsM1]”, the binding result is on record as “binds more weakly” in data set [1] (300 nM protein, weakly or not at all, 4 nM probe, RT) and “no binding” in data set [3] (label: 32P (5' PNK), unlabeled as competitor). In data set [1], the Kd is over 200 µM.
